# Results are given in words; binding and its absence hold for the method and conditions named. Some binding calls cover weakened binding; strength is not graded here.
# Columns and labels:
# [1] = biological target: recombinant cynomolgus CD30L protein (cynomolgus); experiment: ELISA, purified cyno CD30L
# [2] = biological target: cynomolgus CD30L expressed on cells (cynomolgus); experiment: flow cytometry, HEK293 cells expressing cyno CD30L
# [3] = biological target: cynomolgus CD30L expressed on cells (cynomolgus); experiment: flow cytometry
Binder,binding [1],binding [2],binding [3]
"Clone 1 (antibody, V domains shown) VH: QVQLQESGPGLVKPSETLSLTCTVSGGSISGYYWSWIRQPPVKGLEWIGYIFYSGYTKYNPSLKSRVTISVDTSKNQFSLKLSSVTAADTAVYYCARDRWDFDYWGQGALVTVSS VL: AIQMTQSPSYLSASVGDRVTIACRASQGIRNNLGWYQQKPGKAPKLLIYAESSLQSGVPSRFSGSGSGTDFTLTISSLQPEDFATYYCLQDFNYPYTFGQGTKLEIK",binds,binds,–
"Clone 2 (antibody, V domains shown) VH: EVQLVESGGGLVQPGRSLRLSCAASGFNFDDYAMHWVRQAPGKGLEWVSGISWRSGNIGYAGSVKGRFTISRDNAKNSLYLQMNSLRPEDSALYYCAKDKGIGFNWNYEGFDYWGQGTLVTVSS VL: DIQMTQSPSSLSASVGDRVTITCRASQGISNHLAWFQQKPGKAPKSLIYAASSLQSGVPSKFSGSGSGTDFTLTISSLQPEDFATYYCQQYVTYPLTFGGGTKVEIK",binds,binds,–
"clone 2 germlined (antibody, V domains shown) VH: EVQLVESGGGLVQPGRSLRLSCAASGFNFDDYAMHWVRQAPGKGLEWVSGISWRSGNIGYADSVKGRFTISRDNAKNSLYLQMNSLRAEDTALYYCAKDKGIGFNWNYEGFDYWGQGTLVTVSS VL: DIQMTQSPSSLSASVGDRVTITCRASQGISNHLAWFQQKPGKAPKSLIYAASSLQSGVPSRFSGSGSGTDFTLTISSLQPEDFATYYCQQYVTYPLTFGGGTKVEIK",binds,binds,binds
